Laboratory results taken from publication PMC7778541.
No constants are given. Whether binding was seen depends on the method and setting. Binding seen in cells or lysates may run through a third protein. A yes stands for co-enrichment or nearness to the bait. Other partners may have been found. Sequences can lack the tags named with a protein. Blank lines part the entries; values can stand above or below the molecule they belong to.

The chains behind the UniProt entries cited, without tags or fusion partners.
UniProt P31943: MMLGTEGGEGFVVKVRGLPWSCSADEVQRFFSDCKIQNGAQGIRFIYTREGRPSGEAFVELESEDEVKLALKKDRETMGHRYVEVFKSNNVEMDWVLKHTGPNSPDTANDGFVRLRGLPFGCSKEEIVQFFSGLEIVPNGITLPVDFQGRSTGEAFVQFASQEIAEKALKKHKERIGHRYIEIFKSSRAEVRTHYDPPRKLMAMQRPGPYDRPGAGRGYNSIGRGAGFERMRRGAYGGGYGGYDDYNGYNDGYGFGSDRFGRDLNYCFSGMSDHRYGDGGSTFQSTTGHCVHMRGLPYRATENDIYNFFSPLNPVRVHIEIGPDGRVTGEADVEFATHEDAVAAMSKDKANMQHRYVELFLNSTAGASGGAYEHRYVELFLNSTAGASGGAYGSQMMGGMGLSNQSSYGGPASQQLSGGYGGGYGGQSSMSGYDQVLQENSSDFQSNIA
UniProt O75369: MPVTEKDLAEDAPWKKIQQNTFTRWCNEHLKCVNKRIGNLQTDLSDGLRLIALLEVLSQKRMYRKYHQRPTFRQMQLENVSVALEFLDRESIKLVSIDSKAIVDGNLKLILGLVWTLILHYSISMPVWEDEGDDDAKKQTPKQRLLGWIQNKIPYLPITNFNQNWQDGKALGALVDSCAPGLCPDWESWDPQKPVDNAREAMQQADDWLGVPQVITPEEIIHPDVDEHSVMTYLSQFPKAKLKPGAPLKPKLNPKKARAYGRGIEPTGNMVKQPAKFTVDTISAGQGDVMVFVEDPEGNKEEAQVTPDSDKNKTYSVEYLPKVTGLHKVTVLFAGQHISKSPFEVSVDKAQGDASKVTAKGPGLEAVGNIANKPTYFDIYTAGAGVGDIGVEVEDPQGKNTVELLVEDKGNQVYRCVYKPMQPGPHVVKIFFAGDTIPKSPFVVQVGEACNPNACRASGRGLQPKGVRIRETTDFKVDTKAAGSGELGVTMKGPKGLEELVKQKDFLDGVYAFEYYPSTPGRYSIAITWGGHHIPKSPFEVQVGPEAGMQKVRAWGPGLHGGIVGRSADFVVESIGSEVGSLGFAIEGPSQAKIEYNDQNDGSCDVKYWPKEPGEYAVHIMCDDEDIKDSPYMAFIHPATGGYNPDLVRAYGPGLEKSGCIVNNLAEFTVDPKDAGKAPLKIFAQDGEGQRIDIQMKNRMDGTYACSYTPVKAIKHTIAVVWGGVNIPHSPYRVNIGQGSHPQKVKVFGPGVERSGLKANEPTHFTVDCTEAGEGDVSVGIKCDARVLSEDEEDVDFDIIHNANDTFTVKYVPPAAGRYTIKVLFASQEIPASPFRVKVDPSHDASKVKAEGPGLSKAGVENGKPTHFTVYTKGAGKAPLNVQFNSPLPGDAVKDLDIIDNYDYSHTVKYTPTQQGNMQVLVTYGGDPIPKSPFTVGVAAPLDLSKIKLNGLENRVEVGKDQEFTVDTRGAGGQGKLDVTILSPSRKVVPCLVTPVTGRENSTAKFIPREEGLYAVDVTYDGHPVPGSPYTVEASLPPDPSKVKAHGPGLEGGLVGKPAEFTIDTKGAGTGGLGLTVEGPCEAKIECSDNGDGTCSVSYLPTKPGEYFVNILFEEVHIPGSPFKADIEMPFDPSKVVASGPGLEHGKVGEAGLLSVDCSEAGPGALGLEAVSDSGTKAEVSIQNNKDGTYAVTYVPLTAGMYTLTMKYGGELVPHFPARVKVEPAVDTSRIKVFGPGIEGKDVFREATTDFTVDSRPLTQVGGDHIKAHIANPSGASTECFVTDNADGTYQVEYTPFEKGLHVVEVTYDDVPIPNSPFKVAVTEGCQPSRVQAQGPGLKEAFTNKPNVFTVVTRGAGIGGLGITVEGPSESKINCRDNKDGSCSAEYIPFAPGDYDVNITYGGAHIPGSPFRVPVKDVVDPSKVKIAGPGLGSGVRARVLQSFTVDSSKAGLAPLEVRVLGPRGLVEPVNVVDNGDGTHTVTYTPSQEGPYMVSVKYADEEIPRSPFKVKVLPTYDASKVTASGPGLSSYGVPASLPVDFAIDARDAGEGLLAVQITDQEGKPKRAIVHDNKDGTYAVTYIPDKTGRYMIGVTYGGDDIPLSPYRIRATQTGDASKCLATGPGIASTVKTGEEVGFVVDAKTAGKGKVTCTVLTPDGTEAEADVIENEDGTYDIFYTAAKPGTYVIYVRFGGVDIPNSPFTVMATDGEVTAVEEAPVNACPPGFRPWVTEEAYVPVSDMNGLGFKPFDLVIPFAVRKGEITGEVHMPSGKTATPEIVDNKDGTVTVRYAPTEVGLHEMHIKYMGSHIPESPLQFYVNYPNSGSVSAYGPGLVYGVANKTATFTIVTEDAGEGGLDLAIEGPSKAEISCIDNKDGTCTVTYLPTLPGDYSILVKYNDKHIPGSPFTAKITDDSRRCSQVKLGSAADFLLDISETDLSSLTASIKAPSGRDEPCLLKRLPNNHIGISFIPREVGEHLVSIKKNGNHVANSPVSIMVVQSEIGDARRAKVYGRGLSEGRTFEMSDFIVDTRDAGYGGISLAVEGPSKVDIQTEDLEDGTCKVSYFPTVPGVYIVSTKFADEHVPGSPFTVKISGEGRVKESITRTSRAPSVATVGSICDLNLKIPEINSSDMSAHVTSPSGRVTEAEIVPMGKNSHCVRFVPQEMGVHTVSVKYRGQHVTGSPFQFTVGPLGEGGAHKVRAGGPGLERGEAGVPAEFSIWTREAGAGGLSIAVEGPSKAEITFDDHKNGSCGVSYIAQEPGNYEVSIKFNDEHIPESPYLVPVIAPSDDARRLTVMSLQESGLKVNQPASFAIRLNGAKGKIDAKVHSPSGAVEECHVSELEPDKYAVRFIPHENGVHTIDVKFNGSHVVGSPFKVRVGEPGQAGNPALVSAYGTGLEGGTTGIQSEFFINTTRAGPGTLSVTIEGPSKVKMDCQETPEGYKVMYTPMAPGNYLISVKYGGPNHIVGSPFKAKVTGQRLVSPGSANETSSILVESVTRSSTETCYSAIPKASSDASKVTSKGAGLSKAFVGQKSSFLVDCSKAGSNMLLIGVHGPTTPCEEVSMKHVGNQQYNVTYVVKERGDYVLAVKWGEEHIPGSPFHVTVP
UniProt Q00610: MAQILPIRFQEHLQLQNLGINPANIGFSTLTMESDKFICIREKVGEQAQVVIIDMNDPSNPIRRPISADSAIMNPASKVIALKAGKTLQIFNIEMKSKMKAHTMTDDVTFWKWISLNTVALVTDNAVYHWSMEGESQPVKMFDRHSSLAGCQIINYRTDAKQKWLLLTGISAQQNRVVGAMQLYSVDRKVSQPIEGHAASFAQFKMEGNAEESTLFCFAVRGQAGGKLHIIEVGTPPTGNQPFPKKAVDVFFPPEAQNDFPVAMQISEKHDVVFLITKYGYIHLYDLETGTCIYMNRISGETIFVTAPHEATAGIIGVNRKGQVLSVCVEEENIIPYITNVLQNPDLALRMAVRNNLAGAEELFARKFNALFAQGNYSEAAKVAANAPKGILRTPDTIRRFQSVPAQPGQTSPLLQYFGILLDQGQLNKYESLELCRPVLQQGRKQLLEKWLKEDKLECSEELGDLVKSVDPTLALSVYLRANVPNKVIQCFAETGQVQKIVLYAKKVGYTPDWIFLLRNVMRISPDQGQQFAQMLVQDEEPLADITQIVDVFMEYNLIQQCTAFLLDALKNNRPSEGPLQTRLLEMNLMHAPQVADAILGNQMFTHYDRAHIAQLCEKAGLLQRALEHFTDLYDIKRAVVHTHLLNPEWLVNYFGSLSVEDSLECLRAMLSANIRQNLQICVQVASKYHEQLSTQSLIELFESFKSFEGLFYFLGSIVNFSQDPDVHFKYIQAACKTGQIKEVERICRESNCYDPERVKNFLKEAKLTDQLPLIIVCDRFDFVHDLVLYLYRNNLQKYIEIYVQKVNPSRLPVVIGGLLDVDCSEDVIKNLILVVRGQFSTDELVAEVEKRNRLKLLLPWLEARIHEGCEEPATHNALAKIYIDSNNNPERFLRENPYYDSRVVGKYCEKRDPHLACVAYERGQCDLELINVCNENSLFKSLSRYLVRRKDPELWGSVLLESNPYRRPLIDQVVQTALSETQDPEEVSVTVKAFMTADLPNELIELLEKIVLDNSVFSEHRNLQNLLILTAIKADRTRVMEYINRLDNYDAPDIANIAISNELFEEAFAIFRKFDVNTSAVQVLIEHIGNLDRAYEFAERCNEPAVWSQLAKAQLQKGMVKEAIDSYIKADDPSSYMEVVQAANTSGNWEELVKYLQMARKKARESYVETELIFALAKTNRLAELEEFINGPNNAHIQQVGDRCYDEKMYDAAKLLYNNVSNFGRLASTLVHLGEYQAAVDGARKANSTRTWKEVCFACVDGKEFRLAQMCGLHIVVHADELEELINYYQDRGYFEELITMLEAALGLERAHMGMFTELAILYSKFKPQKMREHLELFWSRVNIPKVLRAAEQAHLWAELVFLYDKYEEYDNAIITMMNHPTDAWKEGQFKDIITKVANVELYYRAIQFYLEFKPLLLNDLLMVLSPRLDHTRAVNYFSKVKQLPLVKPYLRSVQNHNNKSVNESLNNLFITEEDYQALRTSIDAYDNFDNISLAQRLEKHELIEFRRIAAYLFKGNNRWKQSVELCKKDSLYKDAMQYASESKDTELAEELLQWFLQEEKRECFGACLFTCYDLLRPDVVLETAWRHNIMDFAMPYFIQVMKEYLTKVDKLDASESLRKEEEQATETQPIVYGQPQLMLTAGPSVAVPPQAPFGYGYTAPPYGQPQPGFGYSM
UniProt P19474: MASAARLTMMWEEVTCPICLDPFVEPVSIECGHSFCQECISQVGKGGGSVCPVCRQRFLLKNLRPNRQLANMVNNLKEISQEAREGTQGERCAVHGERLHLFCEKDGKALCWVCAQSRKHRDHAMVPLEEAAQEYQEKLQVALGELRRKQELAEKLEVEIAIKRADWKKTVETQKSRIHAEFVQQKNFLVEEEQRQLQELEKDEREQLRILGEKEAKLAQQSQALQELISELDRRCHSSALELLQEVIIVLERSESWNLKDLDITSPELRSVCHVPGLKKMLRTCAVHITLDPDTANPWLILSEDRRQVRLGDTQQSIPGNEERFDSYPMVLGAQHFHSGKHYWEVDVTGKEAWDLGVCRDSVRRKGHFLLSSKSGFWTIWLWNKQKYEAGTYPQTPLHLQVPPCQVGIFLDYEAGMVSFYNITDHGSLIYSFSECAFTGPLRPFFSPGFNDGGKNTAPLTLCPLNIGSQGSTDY
UniProt P14649: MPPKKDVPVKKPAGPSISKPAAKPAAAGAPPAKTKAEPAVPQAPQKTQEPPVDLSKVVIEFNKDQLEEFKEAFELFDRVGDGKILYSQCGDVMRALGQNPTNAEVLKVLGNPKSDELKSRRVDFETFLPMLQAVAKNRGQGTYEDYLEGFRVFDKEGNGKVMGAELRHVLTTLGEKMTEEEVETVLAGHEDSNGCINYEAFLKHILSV
UniProt P13010: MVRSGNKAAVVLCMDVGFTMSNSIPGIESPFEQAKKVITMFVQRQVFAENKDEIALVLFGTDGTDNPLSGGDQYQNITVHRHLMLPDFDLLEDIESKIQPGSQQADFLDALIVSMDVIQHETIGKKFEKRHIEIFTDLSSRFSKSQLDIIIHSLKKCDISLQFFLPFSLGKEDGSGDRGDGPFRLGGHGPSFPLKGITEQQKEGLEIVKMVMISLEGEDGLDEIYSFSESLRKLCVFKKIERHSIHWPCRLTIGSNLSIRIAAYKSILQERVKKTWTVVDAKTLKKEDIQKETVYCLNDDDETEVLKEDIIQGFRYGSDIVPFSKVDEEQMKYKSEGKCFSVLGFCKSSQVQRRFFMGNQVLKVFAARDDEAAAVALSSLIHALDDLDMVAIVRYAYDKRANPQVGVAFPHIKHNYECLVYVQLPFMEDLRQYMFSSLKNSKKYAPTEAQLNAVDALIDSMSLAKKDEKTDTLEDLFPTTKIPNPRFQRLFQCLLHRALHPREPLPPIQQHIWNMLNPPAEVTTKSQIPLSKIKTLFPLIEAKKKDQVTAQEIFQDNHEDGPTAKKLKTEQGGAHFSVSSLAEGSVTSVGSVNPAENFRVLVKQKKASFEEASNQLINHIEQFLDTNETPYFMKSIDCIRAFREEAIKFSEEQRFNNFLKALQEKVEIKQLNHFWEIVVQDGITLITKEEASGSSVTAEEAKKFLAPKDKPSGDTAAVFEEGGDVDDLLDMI
UniProt P38159: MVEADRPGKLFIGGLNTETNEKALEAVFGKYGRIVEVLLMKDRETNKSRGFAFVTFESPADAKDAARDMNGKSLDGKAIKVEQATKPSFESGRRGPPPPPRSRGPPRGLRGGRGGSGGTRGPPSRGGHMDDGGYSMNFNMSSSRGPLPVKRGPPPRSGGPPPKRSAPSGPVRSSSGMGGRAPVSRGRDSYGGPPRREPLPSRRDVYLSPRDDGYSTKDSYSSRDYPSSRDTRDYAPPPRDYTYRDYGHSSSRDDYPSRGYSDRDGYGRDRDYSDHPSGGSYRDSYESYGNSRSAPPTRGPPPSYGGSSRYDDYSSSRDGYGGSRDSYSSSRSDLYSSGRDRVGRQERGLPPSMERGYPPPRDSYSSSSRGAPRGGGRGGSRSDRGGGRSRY

Target: T1, Deltex3 (human (endogenous in PTC cells)) (UniProt Q8N9I9)
T1 sequence: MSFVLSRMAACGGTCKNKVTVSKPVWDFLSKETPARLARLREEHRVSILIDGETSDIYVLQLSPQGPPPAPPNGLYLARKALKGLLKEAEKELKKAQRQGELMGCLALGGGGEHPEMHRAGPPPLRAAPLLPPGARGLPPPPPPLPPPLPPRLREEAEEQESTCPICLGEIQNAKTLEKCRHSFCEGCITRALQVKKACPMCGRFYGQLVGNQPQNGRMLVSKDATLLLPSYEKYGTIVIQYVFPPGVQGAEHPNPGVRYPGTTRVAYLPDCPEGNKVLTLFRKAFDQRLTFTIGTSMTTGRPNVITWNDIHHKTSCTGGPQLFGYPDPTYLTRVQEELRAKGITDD
Experiment: affinity purification with mass spectrometry; IP-MS: cell lysate in IP lysis buffer, anti-DTX3 antibody or normal IgG overnight at 4 °C, Protein A/G PLUS-Agarose beads, 4 washes, eluted in SDT buffer for MS

binding: binds
Molecule: ATP synthase subunit beta (from UniProt P06576)

binding: binds
Molecule: Poly [ADP-ribose] polymerase 1 (from UniProt P09874)

binding: binds
Molecule: Heterogeneous nuclear ribonucleoprotein H (from UniProt P31943 1-449)

binding: binds
Molecule: ATP synthase subunit alpha, mitochondrial (from UniProt P25705 44-553)

binding: binds
Molecule: Filamin A (from UniProt P21333 1-2647)

binding: binds
Molecule: Filamin-B (from UniProt O75369 1-2602)

binding: binds
Molecule: Spectrin beta chain, non-erythrocytic 1 (from UniProt Q01082 1-2364)

binding: binds
Molecule: Neuroblast differentiation-associated protein AHNAK (from UniProt Q09666 1-5890)

binding: binds
Molecule: DNA-dependent protein kinase catalytic subunit (from UniProt P78527 1-4128)

binding: binds
Molecule: Profilin (from UniProt P35080 1-140)

binding: binds
Molecule: Heat shock protein HSP 90-alpha (from UniProt P07900 1-732)

binding: binds
Molecule: Clathrin heavy chain 1 (from UniProt Q00610 1-1675)

binding: binds
Molecule: E3 ubiquitin-protein ligase TRIM21 (from UniProt P19474 1-475)

binding: binds
Molecule: Unconventional myosin-Va (from UniProt Q9Y4I1 1-1855)

binding: binds
Molecule: Myosin light chain 6B (from UniProt P14649 1-208)

binding: binds
Molecule: Filamin-C (from UniProt Q14315 1-2725)

binding: binds
Molecule: X-ray repair cross-complementing protein 5 (from UniProt P13010 1-732)

binding: binds
Molecule: RNA-binding motif protein, X chromosome (from UniProt P38159 1-391)

binding: binds
Molecule: Ras GTPase-activating-like protein IQGAP1 (from UniProt P46940 1-1657)

binding: binds
Molecule: Supervillin (from UniProt O95425 1-2214)

binding: binds
B1: Peroxiredoxin (protein, UniProt V9HW35 1-162)
chain: MAPIKVGDAIPAVEVFEGEPGNKVNLAELFKGKKGVLFGVPGAFTPGCSKTHLPGFVEQAEALKAKGVQVVACLSVNDAFVTGEWGRAHKAEGKVRLLADPTGAFGKETDLLLDDSLVSIFGNRRLKRFSMVVQDGIVKALNVEPDGTGLTCSLAPNIISQL

binding: binds
B2: EF-hand domain-containing protein D2 (protein, UniProt Q96C19 1-240)
chain: MATDELATKLSRRLQMEGEGGGETPEQPGLNGAAAAAAGAPDEAAEALGSADCELSAKLLRRADLNQGIGEPQSPSRRVFNPYTEFKEFSRKQIKDMEKMFKQYDAGRDGFIDLMELKLMMEKLGAPQTHLGLKNMIKEVDEDFDSKLSFREFLLIFRKAAAGELQEDSGLCVLARLSEIDVSSEGVKGAKSFFEAKVQAINVSSRFEEEIKAEQEERKKQAEEMKQRKAAFKELQSTFK

binding: binds
B3: FLOT2 protein (protein, UniProt Q14254 1-428)
chain: MGNCHTVGPNEALVVSGGCCGSDYKQYVFGGWAWAWWCISDTQRISLEIMTLQPRCEDVETAEGVALTVTGVAQVKIMTEKELLAVACEQFLGKNVQDIKNVVLQTLEGHLRSILGTLTVEQIYQDRDQFAKLVREVAAPDVGRMGIEILSFTIKDVYDKVDYLSSLGKTQTAVVQRDADIGVAEAERDAGIREAECKKEMLDVKFMADTKIADSKRAFELQKSAFSEEVNIKTAEAQLAYELQGAREQQKIRQEEIEIEVVQRKKQIAVEAQEILRTDKELIATVRRPAEAEAHRIQQIAEGEKVKQVLLAQAEAEKIRKIGEAEAAVIEAMGKAEAERMKLKAEAYQKYGDAAKMALVLEALPQIAAKIAAPLTKVDEIVVLSGDNSKVTSEVNRLLAELPASVHALTGVDLSKIPLIKKATGVQV

binding: binds
B4: Glucosidase, alpha neutral AB, isoform CRA_b (protein, UniProt Q14697 29-944)
chain: ITLAVDRSNFKTCEESSFCKRQRSIRPGLSPYRALLDSLQLGPDSLTVHLIHEVTKVLLVLELQGLQKNMTRFRIDELEPRRPRYRVPDVLVADPPIARLSVSGRDENSVELTMAEGPYKIILTARPFRLDLLEDRSLLLSVNARGLLEFEHQRAPRVSQGSKDPAEGDGAQPEETPRDGDKPEETQGKAEKDEPGAWEETFKTHSDSKPYGPMSVGLDFSLPGMEHVYGIPEHADNLRLKVTEGGEPYRLYNLDVFQYELYNPMALYGSVPVLLAHNPHRDLGIFWLNAAETWVDISSNTAGKTLFGKMMDYLQGSGETPQTDVRWMSETGIIDVFLLLGPSISDVFRQYASLTGTQALPPLFSLGYHQSRWNYRDEADVLEVDQGFDDHNLPCDVIWLDIEHADGKRYFTWDPSRFPQPRTMLERLASKRRKLVAIVDPHIKVDSGYRVHEELRNLGLYVKTRDGSDYEGWCWPGSAGYPDFTNPTMRAWWANMFSYDNYEGSAPNLFVWNDMNEPSVFNGPEVTMLKDAQHYGGWEHRDVHNIYGLYVHMATADGLRQRSGGMERPFVLARAFFAGSQRFGAVWTGDNTAEWDHLKISIPMCLSLGLVGLSFCGADVGGFFKNPEPELLVRWYQMGAYQPFFRAHAHLDTGRREPWLLPSQHNDIIRDALGQRYSLLPFWYTLLYQAHREGIPVMRPLWVQYPQDVTTFNIDDQYLLGDALLVHPVSDSGAHGVQVYLPGQGEVWYDIQSYQKHHGPQTLYLPVTLSSIPVFQRGGTIVPRWMRVRRSSECMKDDPITLFVALSPQGTAQGELFLDDGHTFNYQTRQEFLLRRFSFSGNTLVSSSADPEGHFETPIWIERVVIIGAGKPAAVVLQTKGSPESRLSFQHDPETSVLVLRKPGINVASDWSIHLR

binding: binds
B5: Phosphate carrier protein, mitochondrial (protein, UniProt Q00325 50-362)
chain: AVEEQYSCDYGSGRFFILCGLGGIISCGTTHTALVPLDLVKCRMQVDPQKYKGIFNGFSVTLKEDGVRGLAKGWAPTFLGYSMQGLCKFGFYEVFKVLYSNMLGEENTYLWRTSLYLAASASAEFFADIALAPMEAAKVRIQTQPGYANTLRDAAPKMYKEEGLKAFYKGVAPLWMRQIPYTMMKFACFERTVEALYKFVVPKPRSECSKPEQLVVTFVAGYIAGVFCAIVSHPADSVVSVLNKEKGSSASLVLKRLGFKGVWKGLFARIIMIGTLTALQWFIYDSVKVYFRLPRPPPPEMPESLKKKLGLTQ

binding: binds
B6: NADH: Ubiquinone Oxidoreductase Complex Assembly Factor 5 (protein, UniProt Q5TEU4 37-345)
chain: GSTSPRTLNIFDRDLKRKQKNWAARQPEPTKFDYLKEEVGSRIADRVYDIPRNFPLALDLGCGRGYIAQYLNKETIGKFFQADIAENALKNSSETEIPTVSVLADEEFLPFKENTFDLVVSSLSLHWVNDLPRALEQIHYILKPDGVFIGAMFGGDTLYELRCSLQLAETEREGGFSPHISPFTAVNDLGHLLGRAGFNTLTVDTDEIQVNYPGMFELMEDLQGMGESNCAWNRKALLHRDTMLAAAAVYREMYRNEDGSVPATYQIYYMIGWKYHESQARPAERGSATVSFGELGKINNLMPPGKKSQ

binding: binds
B7: Ribosome-binding protein 1 (protein, UniProt Q9P2E9 1-1410)
chain: MDIYDTQTLGVVVFGGFMVVSAIGIFLVSTFSMKETSYEEALANQRKEMAKTHHQKVEKKKKEKTVEKKGKTKKKEEKPNGKIPDHDPAPNVTVLLREPVRAPAVAVAPTPVQPPIIVAPVATVPAMPQEKLASSPKDKKKKEKKVAKVEPAVSSVVNSIQVLTSKAAILETAPKEVPMVVVPPVGAKGNTPATGTTQGKKAEGTQNQSKKAEGAPNQGRKAEGTPNQGKKTEGTPNQGKKAEGTPNQGKKAEGTPNQGKKAEGAQNQGKKVDTTPNQGKKVEGAPTQGRKAEGAQNQAKKVEGAQNQGKKAEGAQNQGKKGEGAQNQGKKAEGAQNQGKKAEGAQNQGKKAEGAQNQGKKAEGAQNQGKKAEGAQNQGKKAEGAQNQGKKVEGAQNQGKKAEGAQNQGKKAEGAQNQGKKAEGAQNQGKKAEGAQNQGKKAEGAQNQGKKAEGAQNQGKKAEGAQNQGKKVEGAQNQGKKAEGAQNQGKKAEGAQNQGKKAEGAQNQGQKGEGAQNQGKKTEGAQGKKAERSPNQGKKGEGAPIQGKKADSVANQGTKVEGITNQGKKAEGSPSEGKKAEGSPNQGKKADAAANQGKKTESASVQGRNTDVAQSPEAPKQEAPAKKKSGSKKKGEPGPPDADGPLYLPYKTLVSTVGSMVFNEGEAQRLIEILSEKAGIIQDTWHKATQKGDPVAILKRQLEEKEKLLATEQEDAAVAKSKLRELNKEMAAEKAKAAAGEAKVKKQLVAREQEITAVQARMQASYREHVKEVQQLQGKIRTLQEQLENGPNTQLARLQQENSILRDALNQATSQVESKQNAELAKLRQELSKVSKELVEKSEAVRQDEQQRKALEAKAAAFEKQVLQLQASHRESEEALQKRLDEVSRELCHTQSSHASLRADAEKAQEQQQQMAELHSKLQSSEAEVRSKCEELSGLHGQLQEARAENSQLTERIRSIEALLEAGQARDAQDVQASQAEADQQQTRLKELESQVSGLEKEAIELREAVEQQKVKNNDLREKNWKAMEALATAEQACKEKLLSLTQAKEESEKQLCLIEAQTMEALLALLPELSVLAQQNYTEWLQDLKEKGPTLLKHPPAPAEPSSDLASKLREAEETQSTLQAECDQYRSILAETEGMLRDLQKSVEEEEQVWRAKVGAAEEELQKSRVTVKHLEEIVEKLKGELESSDQVREHTSHLEAELEKHMAAASAECQNYAKEVAGLRQLLLESQSQLDAAKSEAQKQSDELALVRQQLSEMKSHVEDGDIAGAPASSPEAPPAEQDPVQLKTQLEWTEAILEDEQTQRQKLTAEFEEAQTSACRLQEELEKLRTAGPLESSETEEASQLKERLEKEKKLTSDLGRAATRLQELLKTTQEQLAREKDTVKKLQEQLEKAEDGSSSKEGTSV
